Values of other authors, collected in publication PMC7764601 (Molecules, 2020).

Target: μ opioid receptors
Settings: read-out: receptor affinity (concentration); cited from earlier work

**Q.** Which Ki does the source give for `COc1cccc(C2(O)CCCCC2CN(C)C)c1` (stereo not shown) [tramadol] here?
**A.** The Ki was 2.4 nM.
